Several values for one entry are separate records, joined by “and”; a condition that tells them apart may be missing. Identical values can stand only once. Among all 390,000 compounds or so, about 820 (0.21%) were called active. Inconclusive means that the source gave no clear call. Such entries were picked first, then a sample of the others. Calls come from the whole dose curve; as a rule, active = well fitted inhibition curve with a large enough effect; inconclusive = small, poorly fitted or top-dose-only effect, or another doubt; inactive = no such curve, though single readings can be large or run the other way. Where the call is inconclusive, the potency comes from a doubtful curve fit.
The compounds below were run against Histone acetyltransferase KAT2A (Homo sapiens) (UniProt Q92830) (assay: qHTS Assay for Inhibitors of GCN5L2). Conditions: GCN5L2 HAT assay, ThioGlo1 CoA-SH fluorescence; activity change, negative = inhibition: at 58.9 µM (top of the series) unless noted.
Procedure, shortened: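 GCN5L2 (20 nM) in 50mM HEPES pH 7.5, 0.1mM EDTA, 0.01% Tween-20 preincubated 15 min with compounds at room temperature. Reaction started with H3(1-25) 75uM, acetyl-CoA 70uM, ThioGlo1 50uM; CoA-thiol fluorescence (Ex340/Em540) read at 0 and 20 min.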
% is set by controls: 0 for no effect and ±100 for the full control effect; potency is the fitted concentration of half-maximal effect.

Sequences of proteins named here, by UniProt entry; tags and fusion partners are left off.
UniProt Q92830, whole entry, looked up: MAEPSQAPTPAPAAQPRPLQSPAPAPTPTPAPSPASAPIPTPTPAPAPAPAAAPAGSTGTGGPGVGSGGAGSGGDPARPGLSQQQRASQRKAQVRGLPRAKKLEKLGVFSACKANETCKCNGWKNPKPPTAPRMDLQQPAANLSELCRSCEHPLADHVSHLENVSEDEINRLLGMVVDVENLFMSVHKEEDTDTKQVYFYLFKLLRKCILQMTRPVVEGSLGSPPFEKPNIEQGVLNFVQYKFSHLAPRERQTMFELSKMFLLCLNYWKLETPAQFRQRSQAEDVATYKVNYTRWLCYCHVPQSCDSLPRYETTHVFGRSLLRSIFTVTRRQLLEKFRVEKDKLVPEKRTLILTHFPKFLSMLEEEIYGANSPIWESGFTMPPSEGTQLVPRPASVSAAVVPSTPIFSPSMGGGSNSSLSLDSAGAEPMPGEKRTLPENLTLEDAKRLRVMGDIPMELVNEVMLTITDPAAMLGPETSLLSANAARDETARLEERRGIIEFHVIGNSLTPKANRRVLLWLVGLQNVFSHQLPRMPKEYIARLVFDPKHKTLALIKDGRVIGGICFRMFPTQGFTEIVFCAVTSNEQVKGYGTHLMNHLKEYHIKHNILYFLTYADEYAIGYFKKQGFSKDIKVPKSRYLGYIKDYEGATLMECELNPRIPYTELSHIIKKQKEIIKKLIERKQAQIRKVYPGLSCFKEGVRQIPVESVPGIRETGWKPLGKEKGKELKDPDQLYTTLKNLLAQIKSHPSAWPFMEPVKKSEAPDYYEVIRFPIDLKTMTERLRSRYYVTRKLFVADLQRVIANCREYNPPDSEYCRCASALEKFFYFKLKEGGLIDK

Row | Structure (SMILES) | activity change, negative = inhibition | Potency
1 | C=CCn1c(SCC(=O)N2CCN(C(=O)c3ccco3)CC2)nc2sc(CC)cc2c1=O | inactive: -1.34% | 
2 | COc1ccc(S(=O)(=O)N(C(=O)C(C)C)c2ccc3oc(=O)sc3c2)cc1 | inactive: -5.71% | 
3 | COc1ccc(C(=O)NCCc2nnc3ccc(SCC(=O)Nc4ccccc4)nn23)cc1 |  | inconclusive: 0.141 µM [inhibitor, full curve, poor fit]
4 | Nc1ccc(Br)c2cccnc12 | inactive: 0% | 
5 | S=C(NCCc1ccccc1)Nc1ccc(Nc2ccccc2)cc1 | inactive: -10.4% | 
6 | CCc1ccc([C@@H]2CC=C(C(=O)O)[C@H](c3ccc(C)cc3)N2S(=O)(=O)c2ccc(C)cc2)cc1 |  | inconclusive: 39.8 µM [inhibitor, single point]
7 | C=CCn1c(NC(=O)c2ccco2)c(S(=O)(=O)c2ccccc2)c2nc3ccccc3nc21 |  | inconclusive: 39.8 µM [inhibitor, single point]
8 | C=CCOc1cccc(C2/C(=C(/O)c3ccccc3)C(=O)C(=O)N2CCN2CCOCC2)c1 (stereo unspecified) |  | inconclusive: 0.562 µM [inhibitor, full curve]
9 | Cc1cc(=O)oc2c3c(cc(OCC(=O)NC4CC4)c12)OC(C)(C)CC3 |  | inconclusive: 39.8 µM [inhibitor, single point]
10 | O=C(CN1C(=O)/C(=C/c2ccc(C(F)(F)F)cc2)Sc2ccccc21)NCCCN1CCOCC1 | inactive: -11.5% | 
11 | C1CCCC(NC2=NCCO2)CCC1 |  | inconclusive: 0.501 µM [inhibitor, partial curve, poor fit]
12 | O=C(O)c1cc(N(Cc2ccccc2O)Cc2cc(O)ccc2O)ccc1O |  | inconclusive: 39.8 µM [inhibitor, single point] and inconclusive: 22.4 µM [inhibitor, single point]
13 | CC1(C)CC2C1CC[C@]1(C)CCC3C(C(=O)O)CC(=O)O[C@]32C1 (stereo partly specified) |  | active: 7.94 µM
14 | O=C(CN1C(=O)NC2(CCCC2)C1=O)OCCOc1ccccc1 |  | inconclusive: 8.91 µM [inhibitor, full curve, poor fit]
15 | O=C(COC(=O)c1ccccc1NS(=O)(=O)c1cccs1)NC1CCCCC1 |  | inconclusive: 1 µM [inhibitor, full curve, poor fit]
16 | O=S(=O)(Nc1ccncc1)c1cc(Cl)c(Cl)cc1Cl |  | inconclusive: 0.447 µM [inhibitor, partial curve, poor fit]
17 | C/C(=N\NC(=O)c1cccc2ccccc12)c1ccccn1 |  | inconclusive: 0.562 µM [inhibitor, single point]
18 | COc1ccc(C(=O)Nc2ccc(NC(=O)c3cccs3)cc2)cc1OC | inactive: 3.68% | 
19 | O=C(Cn1nc(CNc2ccc(Br)cc2)[n+]2c1CCCCC2)c1ccc([N+](=O)[O-])cc1 | inactive: -0.137% | 
20 | CC1=C(C#N)C(c2ccoc2)C(C(=O)OCc2ccccc2)=C(N)S1 (stereo unspecified) |  | inconclusive: 0.562 µM [inhibitor, full curve, poor fit]
21 | COc1c(Br)cc(/C=N/n2c(-c3ccccc3)n[nH]c2=S)c(O)c1Br |  | inconclusive: 20 µM [inhibitor, partial curve]
22 | COc1ccc(CNC(=O)Nc2ccc(C)c(C)c2)cc1 |  | inconclusive: 1 µM [inhibitor, full curve, poor fit]

Row | Structure (SMILES) | activity change, negative = inhibition | Potency
23 | O=C(N/N=C/c1ccoc1)c1cc(O)cc(O)c1 |  | inconclusive: 28.2 µM [inhibitor, partial curve]
24 | Cc1noc2ncnc(NCCc3ccccc3)c12 | inactive: 24.6% | 
25 | Cc1ccc(S(=O)(=O)N2[C@@H](c3ccc(F)cc3)C(C(=O)O)=CC[C@H]2c2ccc(C(C)C)cc2)cc1 |  | inconclusive: 39.8 µM [inhibitor, single point]
26 | CC1=NOC(=O)/C1=C\c1ccc(-c2cccc(Cl)c2)o1 |  | inconclusive: 12.6 µM [inhibitor, partial curve]
27 | CC(=O)Nc1cccc(OCCCOc2ccc([N+](=O)[O-])cc2)c1 |  | inconclusive: 0.631 µM [inhibitor, single point]
28 | CC(=O)Nc1cc[n+](C(C)C(=O)c2ccc(Cl)cc2)cc1 (stereo unspecified) | inactive: -8.36% | 
29 | CC(C)C[C@H](NC(=O)c1nc[nH]c1C(=O)NC(c1ccccc1)c1ccccc1)C(=O)OC(C)(C)C |  | inconclusive: 11.2 µM [inhibitor, partial curve]
30 | CC(=O)Nc1ccc(NC(=S)NC(=O)c2ccc([N+](=O)[O-])c(C)c2)cc1 |  | inconclusive: 7.94 µM [inhibitor, partial curve, poor fit]
31 | CCOc1cc(-c2cc(-c3ccc(C)o3)nc(N)c2C#N)ccc1O | inactive: 1.96% | 
32 | CC(O)CNCCCOc1ccc(Cl)cc1C(C)(C)C (stereo unspecified) | inactive: -2.82% | 
33 | CCOc1ccccc1NC1=CC(=O)CC(c2ccccc2)C1 (stereo unspecified) |  | inconclusive: 17.8 µM [inhibitor, single point]
34 | CSc1ccc(N2CCN(CCCNC(=O)Nc3ccccc3F)CC2)cc1 |  | inconclusive: 2.51 µM [inhibitor, single point]
35 | CC(C)C[C@H](NC(=O)c1nc[nH]c1C(=O)N[C@@H](CC(C)C)C(=O)OCc1ccccc1)C(=O)OCc1ccccc1 |  | inconclusive: 14.1 µM [inhibitor, partial curve, poor fit]
36 | NC(=S)N/N=C\c1ccc(-c2cccc(Cl)c2Cl)o1 | inconclusive: -91.5% [inhibitor] | 
37 | N#Cc1ccccc1S(=O)(=O)N1CCN(C(=O)C2COc3ccccc3O2)CC1 (stereo unspecified) | inactive: -9.98% | 
38 | Cc1ccccc1-n1c(SCC(=O)Nc2cccc3ccccc23)nc(O)cc1=O |  | inconclusive: 31.6 µM [inhibitor, single point]
39 | CCc1cc(=O)oc2c(C)c(O)c(CN3CCCCC3)cc12 |  | inconclusive: 28.2 µM [inhibitor, partial curve]
40 | O=[N+]([O-])c1ccc(Sc2cccc[n+]2[O-])c2nonc12 |  | active: 15.8 µM
41 | O=C(c1cccc(Cl)c1)N1CCC(=O)N([C@H](COCc2cccc(Cl)c2)Cc2ccccc2)CC1 |  | inconclusive: 3.16 µM [inhibitor, partial curve]
42 | CCC(CC)C(=O)N1N=C(c2ccc(NS(C)(=O)=O)cc2)CC1c1ccc(C)cc1 (stereo unspecified) | inactive: -13% | 
43 | O=C1CCc2cc(S(=O)(=O)Nc3cccc(F)c3)cc3c2N1CC3 | inactive: -6.42% | 
44 | CCC(C)(C)c1ccc(OCCCC[n+]2cccc(C)c2)c(C(C)(C)CC)c1 | inactive: -0.691% | 

Row | Structure (SMILES) | activity change, negative = inhibition | Potency
45 | O=C(NCc1ccncc1)c1nnc(Cc2c(F)cccc2Cl)o1 |  | inconclusive: 28.2 µM [inhibitor, single point]
46 | Cc1c(NS(=O)(=O)c2cc(C(=O)NCc3cccnc3)cc(Cl)c2Cl)c(=O)n(-c2ccccc2)n1C |  | inconclusive: 20 µM [inhibitor, single point]
47 | CCOc1cccc(Nc2cc3n(c(=O)n2)CCc2cc(OC)c(OC)cc2-3)c1 |  | inconclusive: 28.2 µM [inhibitor, single point]
48 | O=C(c1cnccn1)N1CCC[C@@]2(CCN(c3cccc(-c4ccccc4)c3)C2)C1 | inactive: -10.5% | 
49 | O=C(CN1CCN(S(=O)(=O)c2ccc(F)cc2)CC1)Nc1cccc(C(F)(F)F)c1 |  | inconclusive: 0.794 µM [inhibitor, full curve, poor fit]
50 | O=S(=O)(Cc1ccc(Cl)cc1)NCC1CCCO1 (stereo unspecified) |  | inconclusive: 44.7 µM [inhibitor, single point]
51 | Cc1ccc(S(=O)(=O)Nc2ccccc2F)cc1C(=O)NNC(=O)c1ccccc1O |  | inconclusive: 22.4 µM [inhibitor, single point]
52 | CN(C)C1(CNC(=O)C2CCC(=O)N(CCc3ccc(Cl)cc3)C2)CCCCC1 (stereo unspecified) |  | inconclusive: 35.5 µM [inhibitor, single point]
53 | Cc1ccc(S(=O)(=O)N2CCN(C)CC2)cc1C(=O)NC1CCCCC1 |  | inconclusive: 0.708 µM [inhibitor, single point]
54 | COc1ccc(C2CC(c3ccncc3)=NN2c2ccc(S(N)(=O)=O)cc2)cc1 (stereo unspecified) |  | inconclusive: 25.1 µM [inhibitor, single point]
55 | C/C(=N\Nc1nc(N)cc(Cl)n1)c1ccc(F)cc1 |  | inconclusive: 8.91 µM [inhibitor, single point]
56 | CCCCCC(=O)Nc1cccc(C2=NOC3(C2)C[C@@H](C(N)=O)N(C(=O)C2(C)CC2)C3)c1 (stereo partly specified) |  | inconclusive: 5.62 µM [inhibitor, partial curve, poor fit]
57 | O=C(O)c1cccc(NC2=C(n3nnc4ccccc43)C(=O)c3ccccc3C2=O)c1 |  | inconclusive: 3.16 µM [inhibitor, partial curve]
58 | COc1ccc(CCNC(=O)C(=O)NCC2OCCN2S(=O)(=O)c2cc(F)ccc2F)cc1 (stereo unspecified) |  | inconclusive: 15.8 µM [inhibitor, single point]
59 | CCC(C)C(NC(=O)C1CCC(C)CC1)C(=O)Nc1cc(OC)ccc1OC (stereo unspecified) | inconclusive: -93.5% [inhibitor] | 
60 | Cc1ccc(Cn2nnc3c(=O)[nH]c(C4CCN(S(=O)(=O)c5ccccc5)CC4)nc32)cc1 |  | inconclusive: 7.08 µM [inhibitor, single point]
61 | COc1ccc(CC(=O)NNC(=S)NC(=O)c2cccnc2)cc1 |  | inconclusive: 39.8 µM [inhibitor, single point]
62 | O=C(CCN1C(=O)C2C3CCC(C3)C2C1=O)Nc1ccccc1Cl (stereo unspecified) |  | inconclusive: 5.62 µM [inhibitor, partial curve]
63 | CC(=O)c1cc(-c2ccccc2)n(CC(=O)NCCc2ccc(C)cc2)c1C | inactive: -4.9% | 
64 | Cc1ccccc1C(=O)Nc1nc(-c2ccc(Br)cc2)ns1 | inactive: -8.3% | 
65 | CC(C)NC(=O)C1CCC(Cn2c(=O)c3sccc3n(CC(=O)Nc3ccccc3)c2=O)CC1 (stereo unspecified) | inactive: -0.351% | 
66 | Cc1noc(Cn2c(=O)c3cc4c(cc3n(CC(=O)Nc3ccccc3F)c2=O)OCO4)n1 |  | inconclusive: 0.501 µM [inhibitor, partial curve, poor fit]
